# Data published in US20150133367A1.
# The chains behind the UniProt entries cited, without tags or fusion partners. Residues count along the entry.
# UniProt P25774, residues 115-331: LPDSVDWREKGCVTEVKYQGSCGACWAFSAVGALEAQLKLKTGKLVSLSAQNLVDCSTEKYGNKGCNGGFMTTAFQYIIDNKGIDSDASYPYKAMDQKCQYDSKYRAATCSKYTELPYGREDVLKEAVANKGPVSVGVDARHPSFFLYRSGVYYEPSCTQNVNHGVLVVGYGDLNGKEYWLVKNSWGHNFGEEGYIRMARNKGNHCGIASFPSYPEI
# UniProt P07711, residues 114-333: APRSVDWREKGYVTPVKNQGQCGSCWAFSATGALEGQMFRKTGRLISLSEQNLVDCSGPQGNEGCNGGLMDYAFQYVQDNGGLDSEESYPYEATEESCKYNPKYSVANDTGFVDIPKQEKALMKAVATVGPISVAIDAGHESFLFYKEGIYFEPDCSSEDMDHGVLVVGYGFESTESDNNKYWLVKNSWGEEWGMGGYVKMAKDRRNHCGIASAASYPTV
# No constants are given. Whether binding was seen depends on the method and setting. Some entries that bind do so weakly or less than the wild type.
# T1: Cathepsin K (UniProt P43235)
# T1 sequence (looked up): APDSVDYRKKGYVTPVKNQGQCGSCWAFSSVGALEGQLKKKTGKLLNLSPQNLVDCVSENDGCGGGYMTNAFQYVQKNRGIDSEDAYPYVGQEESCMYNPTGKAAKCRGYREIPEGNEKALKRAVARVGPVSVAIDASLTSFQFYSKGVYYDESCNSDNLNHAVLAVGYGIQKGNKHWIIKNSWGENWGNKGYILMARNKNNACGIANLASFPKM
# Target: T1, Cathepsin K
# Assay: enzyme inhibition assay
row,binding,Binder
1,binds,"SCESVCKPWGP (Cys2 and Cys6 (i,i+4) linked by alpha,alpha'-meta-xylylene) [… (SEQ ID NO:50)]"

# Target: Cathepsin S (UniProt P25774)
# Assay: enzyme inhibition assay
row,binding,Binder
1,binds,"WWEWVCSLMCS (Cys6 and Cys10 (i,i+4) linked by alpha,alpha'-meta-xylylene) [… (SEQ ID NO:25)]"
2,binds,"TSEEVCSLMCS (Cys6 and Cys10 (i,i+4) linked by alpha,alpha'-meta-xylylene) [… (SEQ ID NO:16)]"
3,binds,"TWEEVCSLMCS (Cys6 and Cys10 (i,i+4) linked by alpha,alpha'-meta-xylylene) [… (SEQ ID NO:18)]"
4,binds,"TSEWVCSLMCS (Cys6 and Cys10 (i,i+4) linked by alpha,alpha'-meta-xylylene) [… (SEQ ID NO:20)]"
5,binds,"WSEEVCSLMCS (Cys6 and Cys10 (i,i+4) linked by alpha,alpha'-meta-xylylene) [… (SEQ ID NO:17)]"
6,binds,"TWEWVCSLMCS (Cys6 and Cys10 (i,i+4) linked by alpha,alpha'-meta-xylylene) [… (SEQ ID NO:23)]"
7,binds,"TSEEWCSLMCS (Cys6 and Cys10 (i,i+4) linked by alpha,alpha'-meta-xylylene) [… (SEQ ID NO:21)]"

# Target: Cathepsin L (UniProt P07711)
# Assay: enzyme inhibition assay
row,binding,Binder
1,binds,"TSEEVCSLMCS (Cys6 and Cys10 (i,i+4) linked by alpha,alpha'-meta-xylylene) [… (SEQ ID NO:16)]"
2,binds,"TWEEVCSLMCS (Cys6 and Cys10 (i,i+4) linked by alpha,alpha'-meta-xylylene) [… (SEQ ID NO:18)]"
3,binds,"TSEWVCSLMCS (Cys6 and Cys10 (i,i+4) linked by alpha,alpha'-meta-xylylene) [… (SEQ ID NO:20)]"
4,binds,"WSEEVCSLMCS (Cys6 and Cys10 (i,i+4) linked by alpha,alpha'-meta-xylylene) [… (SEQ ID NO:17)]"
5,binds,"TSEEWCSLMCS (Cys6 and Cys10 (i,i+4) linked by alpha,alpha'-meta-xylylene) [… (SEQ ID NO:21)]"
